The text below walks through data of PubChem BioAssay AID1347423 (Functional Genomics Laboratory (NCATS/FGL), 2020).

In all, about 52,000 sequences went through this assay and about 210 (0.4%) were called active.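 Rule for the calls: active = gene whose silencing raises cell survival under the drug, median off-target-corrected z-score across its silencing RNAs 2 or more; inactive = the rest.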 The list shows a part of the results.

The nature of the experiment: Resistance to Poly (ADP-Ribose) Polymerase inhibitor: Gene Identification via Genome-wide siRNA Screen. The conditions noted are these: mouse BRCA2 R2336H ES cells, olaparib, CellTiter-Glo viability; stronger effect = higher value. The method in brief: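 Genome-wide siRNA screen (3 siRNAs/gene, 20 nM) in mouse ES cells carrying hypomorphic BRCA2 R2336H; olaparib 500 nM added 48 h post-transfection, CellTiter-Glo viability 72 h later. Normalized to plate-median negative control; MAD z-scores, gene median, seed-adjusted.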
For orientation: In ATP-based viability assays light output follows the ATP content of the culture.
As for “GCCCAUAAACUGAUGGUGGTT against C530046L02Rik”, the z-score was inactive: 0.306. Take CCAGUAAAAAUUGAAGGCUTT against Capza2: the z-score is inactive: 0.0355. For “GCCUGAACUCCUAUGAGCUTT against 2410039E07Rik”, the z-score is inactive: 0.309. To GCUGCUUUGCUAUCUCCUGTT against Apof belongs inactive: -2.5; to GCUGUCUACAGACAUCGAUTT against Ung, inactive: -0.285. The same measure for GGAUGUCAGCUGGUGGUUATT against Tmprss6: inactive: -0.447; for GCAGAGGACAGGCUUACUUTT against BC052055: inactive: 1.46; for GGACUCUGUCUGUAAACAGTT against Nup43: inactive: 2.73.

Turning to GGCCAUGAUCAAAACGUAUTT against Leng8, the z-score is inactive: 0.0289. The same measure for GGACAUUAUUAUGGAUGAUTT against Arl2bp: inactive: -0.409.

Turning to “GGGUUCUUUUAGGUUGUCATT against E030025D05Rik”, the z-score is inactive: 1.09.

Take GGAAUCCUCGGCAGAUAAATT against Rpl24: the z-score was inactive: -2.66.

As for CCAUGUGAAAGUAUAAGAATT against Fmo2, the z-score is inactive: -0.309. The same measure for GGGUUUUGUUAAUACAUACTT against Usmg1: inactive: -2.55; for GCAACAAGUUCGAAAUGAATT against Etv6: inactive: 1.26. Turning to “GCAGGAAGUACUCCUAUCCTT against D030041N04Rik”, the z-score is inactive: 1.65. To UUAUGCUGACCUCUAUCUUTT against Akr1c19 belongs inactive: 0.313; to GGCAUCGUAAAGGACAUCATT against Rpl8, inactive: -2.44. To CCCUUUAAACCUCUUCAGATT against St7l belongs inactive: 0.447; to GCCAACAACAUCUGUUUCUTT against BC004044, inactive: -0.014; to GGUAUAUGUCACAAUGCAUTT against Farsla, inactive: -0.831. To GCUACCUCUGACGACCAAGTT against Slc23a3 belongs inactive: 0.0768; to “GGAUGGUAGGAUGUAGAUCTT against C630007B19Rik”, inactive: -0.206. For the sequence GGAGAGGAGUGUGUCAUCUTT against Lincr, the z-score is inactive: -1.39. To CCCGUAAGGUAACAAACCGTT against Polr3k belongs inactive: -0.888.

Regarding GGAAAUUCUACAAGGGCAATT against Rpl35, the z-score is inactive: -3.02. The same measure for GGUGGAGAAACAAAUUAGUTT against Rab9: inactive: -0.507; for GCCGAGCUCAAAACACAACTT against Txnl4: inactive: -0.673. On to GGGUAAUUCCCAGUGAAGATT against Lpin2, for which the z-score is inactive: -0.422. To GCAUAGCAGAGAUGAUUCUTT against Trip12 belongs inactive: -1.25; to GGACAUUGGCCAUUUGGUUTT against Fpr1, inactive: -0.184. The same measure for “GGAGGCAUUCGCAUAGACGTT against G430041M01Rik”: inactive: -0.127.

With CCUCUACAGGCAAAAUUAGTT against Aurkb, the z-score is inactive: 0.553.

On to GGGUGUAACAAAAUAAAGUTT against Ptprg, for which the z-score was inactive: 0.81.

On to GGAUUUUACAUUUCUACACTT against Prss7, for which the z-score was inactive: 2.23.

For GGUAACAUUUUUUUCCUGUTT against Pla2g3, the z-score was inactive: -0.425. The same measure for GGACUUCUACCUGUCCAUATT against Crtap: inactive: 1.11; for GGUGUGAUGGAGUUCUUAUTT against Ndufs1: inactive: 0.281; for GGUUUCAAGGAAAGACUAATT against Kcnj2: inactive: -0.704. The same measure for GGUCACCCUGUUUAGGCCUTT against Fgd3: inactive: 0.202; for GCGCAGAGUUUGACUAUCCTT against Itgb7: inactive: -0.247. Consider GCAAUAAAAACUACACUAGTT against Agpat3, for which the z-score is inactive: 1.92. To GGCUUUUGUGGACUUUACATT against Capn12 belongs inactive: 0.196; to CCAUUACUUCUGUGACCUCTT against Olfr32, inactive: -0.452; to CCGUAGUAGAGAAAUUACATT against Sec15l1, inactive: -0.596. The same measure for GCACCAUAACGUAAGGCAUTT against Ghsr: inactive: -1.02. For the sequence CGAACAGUGCUUCGUAUGUTT against Lims1, the z-score is inactive: -1.3. The same measure for CGAGAUUUCUGAUGAUGAUTT against Osbpl3: inactive: -1.47. With CCGCUGAAAAUGGAAGUUATT against Mrgprb4, the z-score was inactive: -1.1. To GGUGAUACUACAUAUCAAGTT against Adamts8 belongs inactive: 0.089; to CCAUUUAAUCCAUAUUUCCTT against Gnao1, inactive: -0.379. As for CCCUGUCUCCCGCAUAGAATT against Itgb6, the z-score was active: 1.67.

For GCUCGUCGGCUUUUUGUAATT against BC061194, the z-score is inactive: -0.189.

GCGGAGUGUCAAUAAAAUATT against Atp6v1g2: the z-score is inactive: -0.251. For GCUGGAGAAUAAGCUAAUUTT against Kif13a, the z-score is inactive: 2.05. To CCAUCCAGUCCCUAAGAAATT against Gm1053 belongs inactive: 1.27. To “GCAUUGGAACCAUGUGCUGTT against 1700112C13Rik” belongs inactive: -0.516; to CCACGGGCCAAAUGAAGACTT against Tnfrsf7, inactive: -0.465. To GGAAAAGCAGACAUGUGAUTT against Dedd belongs inactive: 1.16. GGAGCUUCGUGGAUAAGAGTT against Padi3: the z-score was inactive: -1.21. Take “CCUUAUGGAGCAAACAACATT against 4930412F15Rik”: the z-score was inactive: 0.769.

As for GGCAUAUGUUCGUCUUUCATT against Asf1b, the z-score was inactive: -1.53. The same measure for GGCUUUCGUUUACAACAAGTT against Naglu: inactive: 2.05; for “GCUCAGUUGGCAUCCUGUUTT against D3Ertd250e”: inactive: -1.98. The same measure for “CCUCUAAGUAUAUCUUGGATT against 5430433L24Rik”: inactive: -2.07.

Regarding GGAGGAUUUGCCAAGUAACTT against Zbtb33, the z-score is inactive: -0.219. To GCUUAUCUGUCAGUACCACTT against Cxcr6 belongs inactive: 0.549; to GCUCAUUUCCAGAAGACACTT against Tas2r102, inactive: 0.153. With “GGGUGGUGACCCUAAAACUTT against 4933405K07Rik”, the z-score was inactive: -0.0548. To “GCAAAAAGUGGAAUACUAUTT against C230081A13Rik” belongs inactive: 0.425; to CGGAUGAAUGGACUUCCAATT against Dcx, inactive: -2.07.

With GGAACACUGGGAACGUAUCTT against Ifnk, the z-score is inactive: 0.11. The same measure for GGCCAUUUCGAACAUGGUATT against Acacb: inactive: 0.351; for CCAUCAUCGCUCUGUCACATT against Olfr1391: inactive: -2.15; for GCGACAAUUAAGUAUACUUTT against Gria2: inactive: -0.794.

Turning to CGUGAAUCUGCACCACGUUTT against BC044804, the z-score is inactive: 1.44.

With “GGUUUUAUGAGAAAGCAGATT against 4930415J21Rik”, the z-score is inactive: 0.261. With GGACUACCAGUUUUACAUCTT against Ssr1, the z-score was inactive: -0.149. To CCAGAUUGUGUUCACGAUGTT against Rasgrf2 belongs inactive: 0.857; to “CGAUCACCUUAGUAAAUACTT against 0610042I15Rik”, inactive: -0.644; to CGAGAUCGAGUACUCAACUTT against Vps39, inactive: -2.5. With GGUGAACUUGAGGUCACACTT against Angpt4, the z-score was inactive: -0.562. The same measure for GCUUAGUGGUUCUUAUUUGTT against Olfr893: inactive: 1.19; for GCAUCGACAUCCACUUGAATT against Kif9: inactive: 0.207; for “GGCUAAGAGCCACCUAGAGTT against 1810023B24Rik”: inactive: 3.23. Take “GGUUCACUACAACAUUGGCTT against 4930403J22Rik”: the z-score is inactive: 0.33. As for GGGUGAUUUCUGGACUUGGTT against Centd2, the z-score is inactive: 1.49. To GGCCAUCGAAACUUUCUCGTT against Igf2bp1 belongs inactive: 0.151; to CGGCUUACGCAUGUCUAUGTT against Polr2a, inactive: -3.28. Turning to GCUCAGUCAUGUGACCGCATT against Fbxl18, the z-score is inactive: 0.334.

Take CCGUCAUCUACACCUAUUUTT against Olfr525: the z-score was inactive: -1.47.

For the sequence “GGAGUGAAUAUUGAAAAUCTT against 1700030B21Rik”, the z-score is inactive: -0.131. Turning to “GCAUUCAACUCAGAUCUCUTT against D430038H04Rik”, the z-score is inactive: 1.33.

For the sequence GGAUUGUCCUUGAUGGCUGTT against Plek2, the z-score is inactive: 0.639. As to GCGUAUUUCCUUUCGGAGUTT against Sec6l1, the z-score was inactive: 0.218. To GGGUCUUGGAUAUGUGGUUTT against Olfr1337 belongs inactive: 0.172; to GCGUGGAGUGGGAUAAAGATT against Cant1, inactive: -1.04; to GCCUAUCAGUAUCAUAGUUTT against Dnajc10, inactive: -1.05. The same measure for GGGAUAGAAAUGAUUGAGGTT against Lhx8: inactive: -0.0399. To “CGAGCUUAUCAUCAGCGACTT against 1810060D16Rik” belongs inactive: -0.967; to GGGUCCUAAGACUAUUGAUTT against Eif4g1, inactive: -2.87; to GGAGGAUAUCACAACAGAATT against Ftsj3, inactive: -1.9. With GGUUCAGAGAACCUCUCACTT against C78409, the z-score was inactive: 0.609. As to GGACAUGAACAGAGAAGUGTT against Zfp259, the z-score is inactive: -1.24.
